# According to the supplement of paper PMC11438910:
# This is one part of the list. The signal is at background level for most entries.
# Tests used:
# Assay in all cases: fluorescence intensity of antibody binding to polysaccharide-coupled beads; higher = stronger binding
# [1] = target: pneumococcal polysaccharide Pn13
# [2] = target: pneumococcal polysaccharide Pn14
# [3] = target: pneumococcal polysaccharide Pn15A
# [4] = target: pneumococcal polysaccharide Pn15B
# [5] = target: pneumococcal polysaccharide Pn15C
# [6] = target: pneumococcal polysaccharide Pn15F
# [7] = target: pneumococcal polysaccharide Pn16A
# [8] = target: pneumococcal polysaccharide Pn16F
# [9] = target: pneumococcal polysaccharide Pn17A
# [10] = target: pneumococcal polysaccharide Pn17F
# [11] = target: pneumococcal polysaccharide Pn18A
# [12] = target: pneumococcal polysaccharide Pn18B
# [13] = target: pneumococcal polysaccharide Pn18C
# [14] = target: pneumococcal polysaccharide Pn18F
# [15] = target: pneumococcal polysaccharide Pn19A
# [16] = target: pneumococcal polysaccharide Pn19B
# [17] = target: pneumococcal polysaccharide Pn19C
# [18] = target: pneumococcal polysaccharide Pn19F
# [19] = target: pneumococcal polysaccharide Pn2
# [20] = target: pneumococcal polysaccharide Pn20A
# [21] = target: pneumococcal polysaccharide Pn20B
# [22] = target: pneumococcal polysaccharide Pn21
# [23] = target: pneumococcal polysaccharide Pn22A
# [24] = antibody concentration 0.1 ng/mL
# [25] = antibody concentration 0.534724 ng/mL
# [26] = antibody concentration 2.8593 ng/mL
# [27] = antibody concentration 15.2894 ng/mL
# [28] = antibody concentration 81.7561 ng/mL
# [29] = antibody concentration 437.17 ng/mL
# [30] = antibody concentration 2337.65 ng/mL
# [31] = antibody concentration 12500 ng/mL
binder,measurement,setting,value
3S41.4 (protein) chain 1: EVQLVESGGGLVQPGGSLRLSCATSGFTFSNYWMYWFRQAPGKGLEWVSTISGSSTNTYYSGSVKGRFTISRDNAKNTLYLQMNSLRAEDTAVYYCARRGTDSSHWYFDLWGPGTPITVSS chain 2: EIVMTQSPATLSLSPGERATLSCRASQSVSSNLAWYQQKPGQGPRLLIYDASNRATGIPDRFGGSGSGTDFTLTISSLEPEDVGVYYCQQESNWPLTFGGGTKVEIK,fluorescence intensity,[1]; [24],18 MFI
same,fluorescence intensity,[1]; [25],20.5 MFI
same,fluorescence intensity,[1]; [26],18 MFI
same,fluorescence intensity,[1]; [27],18 MFI
same,fluorescence intensity,[1]; [28],19 MFI
same,fluorescence intensity,[1]; [29],17.5 MFI
same,fluorescence intensity,[1]; [30],23 MFI
same,fluorescence intensity,[1]; [31],39 MFI
same,fluorescence intensity,[2]; [24],14 MFI
same,fluorescence intensity,[2]; [25],15 MFI
same,fluorescence intensity,[2]; [26],14 MFI
same,fluorescence intensity,[2]; [27],14 MFI
same,fluorescence intensity,[2]; [28],14.5 MFI
same,fluorescence intensity,[2]; [29],16 MFI
same,fluorescence intensity,[2]; [30],24 MFI
same,fluorescence intensity,[2]; [31],99 MFI
same,fluorescence intensity,[3]; [24],12 MFI
same,fluorescence intensity,[3]; [25],12.2 MFI
same,fluorescence intensity,[3]; [26],13 MFI
same,fluorescence intensity,[3]; [27],13 MFI
same,fluorescence intensity,[3]; [28],13 MFI
same,fluorescence intensity,[3]; [29],14 MFI
same,fluorescence intensity,[3]; [30],14 MFI
same,fluorescence intensity,[3]; [31],19 MFI
same,fluorescence intensity,[4]; [24],17 MFI
same,fluorescence intensity,[4]; [25],18.8 MFI
same,fluorescence intensity,[4]; [26],19 MFI
same,fluorescence intensity,[4]; [27],18.5 MFI
same,fluorescence intensity,[4]; [28],17.5 MFI
same,fluorescence intensity,[4]; [29],21.5 MFI
same,fluorescence intensity,[4]; [30],24.2 MFI
same,fluorescence intensity,[4]; [31],34.2 MFI
same,fluorescence intensity,[5]; [24],16.5 MFI
same,fluorescence intensity,[5]; [25],17.8 MFI
same,fluorescence intensity,[5]; [26],18.2 MFI
same,fluorescence intensity,[5]; [27],17.5 MFI
same,fluorescence intensity,[5]; [28],16 MFI
same,fluorescence intensity,[5]; [29],18 MFI
same,fluorescence intensity,[5]; [30],19 MFI
same,fluorescence intensity,[5]; [31],28.2 MFI
same,fluorescence intensity,[6]; [24],17.5 MFI
same,fluorescence intensity,[6]; [25],17.5 MFI
same,fluorescence intensity,[6]; [26],16 MFI
same,fluorescence intensity,[6]; [27],16 MFI
same,fluorescence intensity,[6]; [28],15.5 MFI
same,fluorescence intensity,[6]; [29],19.2 MFI
same,fluorescence intensity,[6]; [30],20 MFI
same,fluorescence intensity,[6]; [31],32.2 MFI
same,fluorescence intensity,[7]; [24],14 MFI
same,fluorescence intensity,[7]; [25],13.2 MFI
same,fluorescence intensity,[7]; [26],14 MFI
same,fluorescence intensity,[7]; [27],13 MFI
same,fluorescence intensity,[7]; [28],15.2 MFI
same,fluorescence intensity,[7]; [29],15 MFI
same,fluorescence intensity,[7]; [30],17 MFI
same,fluorescence intensity,[7]; [31],29.5 MFI
same,fluorescence intensity,[8]; [24],26.5 MFI
same,fluorescence intensity,[8]; [25],23.5 MFI
same,fluorescence intensity,[8]; [26],22 MFI
same,fluorescence intensity,[8]; [27],22 MFI
same,fluorescence intensity,[8]; [28],22.8 MFI
same,fluorescence intensity,[8]; [29],25 MFI
same,fluorescence intensity,[8]; [30],30.2 MFI
same,fluorescence intensity,[8]; [31],50 MFI
same,fluorescence intensity,[9]; [24],20 MFI
same,fluorescence intensity,[9]; [25],20 MFI
same,fluorescence intensity,[9]; [26],20.5 MFI
same,fluorescence intensity,[9]; [27],20.5 MFI
same,fluorescence intensity,[9]; [28],19.5 MFI
same,fluorescence intensity,[9]; [29],22 MFI
same,fluorescence intensity,[9]; [30],20.8 MFI
same,fluorescence intensity,[9]; [31],30 MFI
same,fluorescence intensity,[10]; [24],24.5 MFI
same,fluorescence intensity,[10]; [25],25 MFI
same,fluorescence intensity,[10]; [26],26.5 MFI
same,fluorescence intensity,[10]; [27],27 MFI
same,fluorescence intensity,[10]; [28],25 MFI
same,fluorescence intensity,[10]; [29],27 MFI
same,fluorescence intensity,[10]; [30],28.5 MFI
same,fluorescence intensity,[10]; [31],36 MFI
same,fluorescence intensity,[11]; [24],23 MFI
same,fluorescence intensity,[11]; [25],23 MFI
same,fluorescence intensity,[11]; [26],22.5 MFI
same,fluorescence intensity,[11]; [27],23 MFI
same,fluorescence intensity,[11]; [28],24 MFI
same,fluorescence intensity,[11]; [29],22.5 MFI
same,fluorescence intensity,[11]; [30],27 MFI
same,fluorescence intensity,[11]; [31],39 MFI
same,fluorescence intensity,[12]; [24],30.5 MFI
same,fluorescence intensity,[12]; [25],29.5 MFI
same,fluorescence intensity,[12]; [26],29.2 MFI
same,fluorescence intensity,[12]; [27],29.2 MFI
same,fluorescence intensity,[12]; [28],30.2 MFI
same,fluorescence intensity,[12]; [29],30 MFI
same,fluorescence intensity,[12]; [30],35.5 MFI
same,fluorescence intensity,[12]; [31],52 MFI
same,fluorescence intensity,[13]; [24],18 MFI
same,fluorescence intensity,[13]; [25],17 MFI
same,fluorescence intensity,[13]; [26],18 MFI
same,fluorescence intensity,[13]; [27],18 MFI
same,fluorescence intensity,[13]; [28],17.5 MFI
same,fluorescence intensity,[13]; [29],19.5 MFI
same,fluorescence intensity,[13]; [30],24 MFI
same,fluorescence intensity,[13]; [31],42 MFI
same,fluorescence intensity,[14]; [24],20.2 MFI
same,fluorescence intensity,[14]; [25],22.5 MFI
same,fluorescence intensity,[14]; [26],23.5 MFI
same,fluorescence intensity,[14]; [27],23 MFI
same,fluorescence intensity,[14]; [28],23.5 MFI
same,fluorescence intensity,[14]; [29],24.5 MFI
same,fluorescence intensity,[14]; [30],30.5 MFI
same,fluorescence intensity,[14]; [31],48 MFI
same,fluorescence intensity,[15]; [24],17.5 MFI
same,fluorescence intensity,[15]; [25],17.2 MFI
same,fluorescence intensity,[15]; [26],17.8 MFI
same,fluorescence intensity,[15]; [27],18.8 MFI
same,fluorescence intensity,[15]; [28],18 MFI
same,fluorescence intensity,[15]; [29],20 MFI
same,fluorescence intensity,[15]; [30],20 MFI
same,fluorescence intensity,[15]; [31],32 MFI
same,fluorescence intensity,[16]; [24],31 MFI
same,fluorescence intensity,[16]; [25],26.8 MFI
same,fluorescence intensity,[16]; [26],27.8 MFI
same,fluorescence intensity,[16]; [27],28 MFI
same,fluorescence intensity,[16]; [28],27 MFI
same,fluorescence intensity,[16]; [29],30.2 MFI
same,fluorescence intensity,[16]; [30],45.5 MFI
same,fluorescence intensity,[16]; [31],152 MFI
same,fluorescence intensity,[17]; [24],27.5 MFI
same,fluorescence intensity,[17]; [25],25 MFI
same,fluorescence intensity,[17]; [26],23.8 MFI
same,fluorescence intensity,[17]; [27],27.5 MFI
same,fluorescence intensity,[17]; [28],26 MFI
same,fluorescence intensity,[17]; [29],25.5 MFI
same,fluorescence intensity,[17]; [30],35.2 MFI
same,fluorescence intensity,[17]; [31],108 MFI
same,fluorescence intensity,[18]; [24],25 MFI
same,fluorescence intensity,[18]; [25],23.2 MFI
same,fluorescence intensity,[18]; [26],24 MFI
same,fluorescence intensity,[18]; [27],24.8 MFI
same,fluorescence intensity,[18]; [28],25 MFI
same,fluorescence intensity,[18]; [29],26.5 MFI
same,fluorescence intensity,[18]; [30],30 MFI
same,fluorescence intensity,[18]; [31],47.5 MFI
same,fluorescence intensity,[19]; [24],17.8 MFI
same,fluorescence intensity,[19]; [25],18 MFI
same,fluorescence intensity,[19]; [26],22 MFI
same,fluorescence intensity,[19]; [27],18 MFI
same,fluorescence intensity,[19]; [28],20.8 MFI
same,fluorescence intensity,[19]; [29],18.8 MFI
same,fluorescence intensity,[19]; [30],23.5 MFI
same,fluorescence intensity,[19]; [31],33.5 MFI
same,fluorescence intensity,[20]; [24],24.5 MFI
same,fluorescence intensity,[20]; [25],22.5 MFI
same,fluorescence intensity,[20]; [26],22.5 MFI
same,fluorescence intensity,[20]; [27],22.5 MFI
same,fluorescence intensity,[20]; [28],21.2 MFI
same,fluorescence intensity,[20]; [29],22.5 MFI
same,fluorescence intensity,[20]; [30],35 MFI
same,fluorescence intensity,[20]; [31],110 MFI
same,fluorescence intensity,[21]; [24],23.8 MFI
same,fluorescence intensity,[21]; [25],22.5 MFI
same,fluorescence intensity,[21]; [26],22.5 MFI
same,fluorescence intensity,[21]; [27],23.2 MFI
same,fluorescence intensity,[21]; [28],23.5 MFI
same,fluorescence intensity,[21]; [29],23.5 MFI
same,fluorescence intensity,[21]; [30],27 MFI
same,fluorescence intensity,[21]; [31],43 MFI
same,fluorescence intensity,[22]; [24],20 MFI
same,fluorescence intensity,[22]; [25],17.5 MFI
same,fluorescence intensity,[22]; [26],19 MFI
same,fluorescence intensity,[22]; [27],19 MFI
same,fluorescence intensity,[22]; [28],18 MFI
same,fluorescence intensity,[22]; [29],19 MFI
same,fluorescence intensity,[22]; [30],20 MFI
same,fluorescence intensity,[22]; [31],26.5 MFI
same,fluorescence intensity,[23]; [24],22 MFI
same,fluorescence intensity,[23]; [25],19.5 MFI
same,fluorescence intensity,[23]; [26],20.2 MFI
same,fluorescence intensity,[23]; [27],20 MFI

# Part of the list above, set out differently.
binder	measurement	setting	value
3S41.4 (protein) chain 1: EVQLVESGGGLVQPGGSLRLSCATSGFTFSNYWMYWFRQAPGKGLEWVSTISGSSTNTYYSGSVKGRFTISRDNAKNTLYLQMNSLRAEDTAVYYCARRGTDSSHWYFDLWGPGTPITVSS chain 2: EIVMTQSPATLSLSPGERATLSCRASQSVSSNLAWYQQKPGQGPRLLIYDASNRATGIPDRFGGSGSGTDFTLTISSLEPEDVGVYYCQQESNWPLTFGGGTKVEIK	fluorescence intensity	[3]; [24]	12 MFI
same	fluorescence intensity	[9]; [26]	20.5 MFI
same	fluorescence intensity	[12]; [24]	30.5 MFI
same	fluorescence intensity	[13]; [24]	18 MFI
same	fluorescence intensity	[17]; [25]	25 MFI
same	fluorescence intensity	[18]; [26]	24 MFI
same	fluorescence intensity	[18]; [29]	26.5 MFI

# Pulled one by one from the list above (four):
binder,measurement,setting,value
3S41.4 (protein) chain 1: EVQLVESGGGLVQPGGSLRLSCATSGFTFSNYWMYWFRQAPGKGLEWVSTISGSSTNTYYSGSVKGRFTISRDNAKNTLYLQMNSLRAEDTAVYYCARRGTDSSHWYFDLWGPGTPITVSS chain 2: EIVMTQSPATLSLSPGERATLSCRASQSVSSNLAWYQQKPGQGPRLLIYDASNRATGIPDRFGGSGSGTDFTLTISSLEPEDVGVYYCQQESNWPLTFGGGTKVEIK,fluorescence intensity,[18]; [28],25 MFI
same,fluorescence intensity,[20]; [28],21.2 MFI
same,fluorescence intensity,[5]; [26],18.2 MFI
same,fluorescence intensity,[19]; [30],23.5 MFI
